Results are given in words; binding and its absence hold for the method and conditions named. Binding seen in cells or lysates may run through a third protein. Some entries that bind do so weakly or less than the wild type.
Molecular target: GST-UFM1 (human (by the printed UniProt accession)) (UniProt P61960)
Experiment: pull-down; 3–5 µg GST-UFM1 on glutathione magnetic beads, overnight at 4 °C with extract of transfected HEK293T cells; washes NETN and PBS; immunoblot; only the target purified

Sequences of proteins named here, by UniProt entry; tags and fusion partners are left off.
UniProt Q9H9Q4: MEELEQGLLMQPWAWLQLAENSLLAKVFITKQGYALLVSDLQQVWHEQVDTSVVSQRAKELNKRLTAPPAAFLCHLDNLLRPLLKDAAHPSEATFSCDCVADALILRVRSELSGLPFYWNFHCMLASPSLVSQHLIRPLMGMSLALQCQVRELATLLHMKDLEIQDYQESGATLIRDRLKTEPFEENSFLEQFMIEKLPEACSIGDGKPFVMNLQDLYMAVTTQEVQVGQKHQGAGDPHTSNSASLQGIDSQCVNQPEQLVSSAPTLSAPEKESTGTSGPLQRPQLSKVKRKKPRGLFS

## GFP-tagged XLF (from UniProt Q9H9Q4 1-299)
  binding: binds
